According to doi:10.1101/2019.12.18.879569:
No constants are given. Whether binding was seen depends on the method and setting. A result given as binding can be weak or reduced; the word gives no strength. For some assays here: In cells and extracts the contact can be indirect. For some assays here: Where a sequence is shown, tags or fusion partners need not be part of it.

Assays:
[1] = target: T1, Gal4 binding domain GBD-AC40 (S. cerevisiae) (UniProt P07703); test: two-hybrid
T1 sequence: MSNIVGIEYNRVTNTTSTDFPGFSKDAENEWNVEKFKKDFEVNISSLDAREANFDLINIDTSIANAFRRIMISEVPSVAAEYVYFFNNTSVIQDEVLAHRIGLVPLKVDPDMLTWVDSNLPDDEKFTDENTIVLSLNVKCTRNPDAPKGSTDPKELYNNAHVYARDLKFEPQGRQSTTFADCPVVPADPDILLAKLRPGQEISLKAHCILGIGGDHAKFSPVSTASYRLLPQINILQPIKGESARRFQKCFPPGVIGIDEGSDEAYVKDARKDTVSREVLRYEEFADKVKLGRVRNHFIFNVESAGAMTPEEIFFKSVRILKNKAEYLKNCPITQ

[2] = target: T2, AC40-Twin-Strep-tag (S. cerevisiae) (UniProt P07703); test: co-IP
T2 sequence: T1 sequence

| Substance | binding [1] | binding [2] |
| --- | --- | --- |
| GAD-IN5 lacking TD5 (IN5_(∆TD5)) (S. cerevisiae) | no binding | – |
| Gal4 activating domain GAD-IN1_(578-635) fusion protein (S. cerevisiae) (domain or fragment) | binds | – |
| GAD-IN1_(1-578) (S. cerevisiae) (domain or fragment) | no binding | – |
| GAD-IN5 (WT Ty5 integrase) (S. cerevisiae) | no binding | – |
| GAD-IN1_(578-635) E623A (S. cerevisiae) (domain or fragment) | binds | – |
| GAD-IN1_(578-635) K617A (S. cerevisiae) (domain or fragment) | no binding | – |

Next, values leading:

| binding [1] | binding [2] | Substance |
| --- | --- | --- |
| binds | – | GAD fused to the entire bNLS sequence (GAD-IN_(596-630)) (S. cerevisiae) (domain or fragment) |
| no binding | – | GAD-IN1_(578-635) M619A (S. cerevisiae) (domain or fragment) |
| no binding | – | GAD-IN1_(578-635) L622A (S. cerevisiae) (domain or fragment) |
| binds | – | GAD-IN1_(578-635) N618A (S. cerevisiae) (domain or fragment) |
| no binding | – | GAD-IN1_(578-635) S621A (S. cerevisiae) (domain or fragment) |
| – | binds | IN1-EPEA (Glu-Pro-Glu-Ala) tagged Ty1 integrase, WT (S. cerevisiae) |
| no binding | – | GAD-IN1_(578-635) R620A (S. cerevisiae) (domain or fragment) |
| binds | – | GAD-IN1_(578-635) VS_(609-610)AA (S. cerevisiae) (domain or fragment) |
